Data as given in PubChem BioAssay AID2517 (National Center for Advancing Translational Sciences (NCATS), 2010).
The campaign covered roughly 350,000 compounds. About 1,200 (0.34%) were called active. The inconclusive results got no clear call from the source; some entries with a clear call stand among them for comparison. Calls follow the shape of the dose curve; as a rule, active = well fitted inhibition curve with a large enough effect; inconclusive = small, poorly fitted or top-dose-only effect; inactive = no such curve, though single readings can be large or run the other way. Potencies beside an inconclusive call are fits to weak or partial responses and may not hold up.

Sequences of proteins named here, by UniProt entry; tags and fusion partners are left off.
UniProt P27695, whole entry, looked up: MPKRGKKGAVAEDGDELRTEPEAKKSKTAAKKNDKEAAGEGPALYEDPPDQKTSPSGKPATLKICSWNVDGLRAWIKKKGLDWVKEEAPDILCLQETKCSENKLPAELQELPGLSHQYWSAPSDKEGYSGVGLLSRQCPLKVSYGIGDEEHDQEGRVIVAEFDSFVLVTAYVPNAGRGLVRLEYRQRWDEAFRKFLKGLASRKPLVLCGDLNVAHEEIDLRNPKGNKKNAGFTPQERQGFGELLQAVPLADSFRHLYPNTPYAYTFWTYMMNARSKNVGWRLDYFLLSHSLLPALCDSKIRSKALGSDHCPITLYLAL

molecular target: DNA repair nuclease/redox regulator APEX1 (Homo sapiens) (UniProt P27695); assay: qHTS Assay for Inhibitors of the Human Apurinic/apyrimidinic Endonuclease 1 (APE1); settings: recombinant APE1, TAMRA/BHQ-2 abasic DNA cleavage fluorescence; activity change, negative = inhibition: at 65.8 µM (top of the series); also: nearly all actives have a fitted effect of over 55% in size;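 as to activity change, negative = inhibition: plate controls were vehicle for no effect and reference inhibitor for full effect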
In short: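 Substrate: short duplex with […] THF abasic site, 5'-TAMRA and 3'-BHQ-2, 50 nM final. APE1 at 0.75 nM, preincubated 15 min RT with compound. Fluorescence increase from first to third read measured activity.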
Potency is read from the fitted curve at half-maximal effect.

Row | Compound | activity change, negative = inhibition | Potency
1 | N=c1n(CCO)c2ccccc2n1CCOc1ccccc1 | inactive: -1.88% | 
2 | COc1ccccc1CNCc1cc(=O)oc2c(C)c(C)ccc12 | inactive: -8.24% | 
3 | CC(=O)C1=C(C)N(CC2CC2)C(=O)N[C@H]1c1ccccc1 |  | inconclusive: 0.112 µM [inhibitor, full curve, poor fit]
4 | Cc1nnc(SCc2nc3sc(C(=O)O)c(C)c3c(=O)[nH]2)s1 |  | inconclusive: 20 µM [inhibitor, single point]
5 | O=C(Nc1nc(-c2ccncc2)cs1)C1COc2ccccc2O1 (centres undefined) |  | inconclusive: 22.4 µM [inhibitor, partial curve]
6 | O=C(O)CN1C(=O)/C(=C\c2cc([N+](=O)[O-])ccc2OCc2ccccc2Cl)SC1=S |  | inconclusive: 37.7 µM [inhibitor, single point]
7 | O=C(NCC1COc2ccccc2O1)c1ccc(NC(=O)C2CCCO2)cc1 (centres undefined) | inactive: -1.49% | 
8 | C=CCOc1ccc(/C=C2\SC(=S)N(NS(=O)(=O)c3ccc(C)cc3)C2=O)cc1 | inactive: -15.9% | 
9 | COc1ccc2c(c1)c(=O)oc1cc(OCC(=O)NC3CCCCC3)ccc12 |  | active: 11.2 µM
10 | COc1ccc(OC)c(Nc2nc(NCCO)c3ccccc3n2)c1 | inactive: -21.3% | 
11 | CC(=O)Nc1cc(Cl)c(N=Cc2ccc(O)cc2O)cc1Cl | inactive: 0.994% | 
12 | COc1ccccc1CNC(=O)/C=C/c1ccc(Br)o1 | inactive: 14.2% | 
13 | Cc1c([N+](=O)[O-])cc(S(=O)(=O)Nc2ccc(-c3ccc(N4CCCC4)nn3)cc2)cc1[N+](=O)[O-] | inactive: 15.4% | 
14 | O=C(CSc1nc2cc(Cl)ccc2o1)Nc1ccc(N2CCOCC2)cc1 |  | inconclusive: 1 µM [inhibitor, full curve, poor fit]
15 | Cc1cc(C)c[n+](-c2[nH]c(=O)sc2/C=N/N=C(\N)[S-])c1 |  | inconclusive: 1.78 µM [inhibitor, partial curve, poor fit]
16 | Cc1ccccc1-n1c(SCc2cc(=O)n3ccccc3n2)nc2[nH]ncc2c1=O |  | inconclusive: 6.31 µM [inhibitor, single point]
17 | Cc1ccc(-c2nc3c(c(=O)[nH]c(=O)n3Cc3ccccc3)n2C)o1 |  | active: 22.4 µM
18 | O=C(NNC(=O)c1ccccc1[N+](=O)[O-])c1cccs1 |  | inconclusive: 25.1 µM [inhibitor, single point]
19 | Cc1nn2c(-c3ccncc3)ccnc2c1Cl |  | inconclusive: 17.8 µM [inhibitor, partial curve]
20 | CCc1nc(SCC(=O)O)c(C#N)c2c1CCCC2 | inactive: 0.0918% | 
21 | COc1ccc(-c2cc(C(=O)O)c3ccccc3n2)c(OC)c1 | inactive: -0.553% | 
22 | CCOC(=O)CN1C(=O)N[C@@H](CCc2ccccc2)[C@@H](C(=O)OC)[C@H]1C | inactive: 1.14% [at 12.4 µM] | 
23 | COc1cccc(-c2nc(N3CCN(C)CC3)c3ccccc3n2)c1O |  | inconclusive: 17.8 µM [inhibitor, partial curve, poor fit]

Row | Compound | activity change, negative = inhibition | Potency
24 | CCOc1cc(NC(=O)c2ccccn2)c(OCC)cc1NC(=O)c1cccc(C)c1 |  | inconclusive: 35.5 µM [inhibitor, single point]
25 | Cn1c(-c2ccc3nc(N)sc3c2)nc2cc(N)ccc21 |  | inconclusive: 39.8 µM [inhibitor, single point]
26 | Cc1cc(C(F)F)n2nc(C(=O)Nc3sc4c(c3C(N)=O)CCC4)nc2n1 |  | inconclusive: 15.8 µM [inhibitor, single point]
27 | COc1ccccc1OCCCn1c(C)c(C#N)c2ccccc21 |  | inconclusive: 5.62 µM [inhibitor, full curve, poor fit]
28 | O=C(NNc1c2ccccc2nc2ccccc12)c1ccc(O)cc1O |  | inconclusive: 35.5 µM [inhibitor, single point]
29 | Cc1c(C(=O)O)sc2nc(/C=C/c3ccccc3OC(F)F)[nH]c(=O)c12 |  | inconclusive: 37.7 µM [inhibitor, single point]
30 | Oc1cc2c(c(Cl)c1O)CCNCC2c1ccccc1 (centres undefined) |  | inactive
31 | Cc1csc(N/N=C/c2ccc(O)c([N+](=O)[O-])c2)n1 |  | inconclusive: 35.5 µM [inhibitor, single point]
32 | Cc1cc(C)n(-c2ncc3c(n2)N(CCO)CCOC3=O)n1 | inactive: 16% | 
33 | Nn1c(SCC(=O)NC2CCCCC2)nnc1C1CC1 | inactive: -4.75% | 
34 | O=C(CSc1ccc(C(F)(F)F)cc1[N+](=O)[O-])Nc1ccccc1 |  | inconclusive: 12.6 µM [inhibitor, partial curve, poor fit]
35 | COC(=O)c1cccc(CSc2nnc(-c3ccco3)n2-c2ccccc2)c1 | inactive: 3.16% | 
36 | CCn1cc([N+](=O)[O-])c(C(=O)N2N=C(c3ccc(OC)cc3OC)CC2c2ccccc2O)n1 (centres undefined) |  | inconclusive: 6.31 µM [inhibitor, full curve, poor fit]
37 | O=C(c1ccc2ccccc2c1)C1CCCN(S(=O)(=O)c2cccnc2)C1 (centres undefined) |  | inconclusive: 44.7 µM [inhibitor, single point]
38 | COc1ccc(CN2C(=O)c3ccccc3C2C(=O)NCc2cccnc2)c(OC)c1 (centres undefined) |  | inconclusive: 44.7 µM [inhibitor, single point]
39 | Cc1cc(Nc2cccc(F)c2)nc(-c2ccccc2O)n1 |  | inconclusive: 44.7 µM [inhibitor, single point]
40 | Cc1cc(C)cc(NC(=O)Nc2ccc(NC(=O)c3ccccc3O)cc2)c1 | inactive: 18.9% | 
41 | O=C1CC(=O)c2c1cccc2[N+](=O)[O-] |  | inconclusive: 39.8 µM [inhibitor, single point]
42 | Cc1cccc(OCC(=O)OCC(=O)NCC2CCCO2)c1C (centres undefined) | inactive: -5.58% | 
43 | COc1ccc([N+](=O)[O-])cc1NC(=O)c1ccc(-n2nc(C)cc2C)cc1 |  | inconclusive: 44.7 µM [inhibitor, single point]
44 | O=C(O)/C=C/C(=O)Nc1ccc(Cl)c(C(=O)O)c1 |  | inconclusive: 39.8 µM [inhibitor, single point]
45 | CC(OC(=O)c1ccc(-n2cnnn2)cc1)C(=O)Nc1ccccc1F (centres undefined) | inactive: 8.11% | 
46 | Cc1ccc2oc(=O)c3c4cc(O)c(O)cc4oc3c2c1 |  | inconclusive: 10 µM [inhibitor, partial curve]

Row | Compound | activity change, negative = inhibition | Potency
47 | Cc1csc(C(=O)O)c1-n1cccc1 |  | inconclusive: 39.8 µM [inhibitor, single point]
48 | CCOCCCNC(=S)N1CCC(NC(=O)C23CC4CC(CC(C4)C2)C3)CC1 |  | inconclusive: 0.316 µM [inhibitor, full curve, poor fit]
49 | S=C(NCc1ccco1)N1CCOCC1 |  | inconclusive: 39.8 µM [inhibitor, single point]
50 | Oc1ccccc1/C=N/NC(=S)NCCc1ccccc1 | inactive: 9.83% | 
51 | O=c1cc(-c2ccc(F)cc2F)[nH]c2ccccc12 |  | inconclusive: 5.01 µM [inhibitor, single point]
52 | O=C(COC(=O)c1cnccn1)NCCc1ccccc1 |  | inconclusive: 10 µM [inhibitor, partial curve, poor fit]
53 | C/C=C(/C)C(=O)O[C@@H]1[C@H](OC(=O)C=C(C)C)c2c(ccc3ccc(=O)oc23)OC1(C)C |  | inconclusive: 10 µM [inhibitor, single point]
54 | Cc1ccccc1-n1c(SCC(=O)N(C)C2CCS(=O)(=O)C2)nnc1-c1ccncc1 (centres undefined) |  | inconclusive: 44.7 µM [inhibitor, single point]
55 | COc1ccc(S(=O)(=O)Cc2ccc(C(=O)N3CCCC3)o2)cc1 |  | inconclusive: 0.158 µM [inhibitor, full curve]
56 | COc1cc2nc(N(C)C)nc(N)c2cc1OC |  | inconclusive: 44.7 µM [inhibitor, single point]
57 | Cc1ccnc(SCCn2c(N3CCN(C)CC3)nc3c2c(=O)n(C)c(=O)n3C)n1 |  | inconclusive: 8.91 µM [inhibitor, single point]
58 | N#CCC(CNc1ncc(C(F)(F)F)cc1Cl)OC(=O)c1cccc(C(F)(F)F)c1 (centres undefined) |  | inconclusive: 22.4 µM [inhibitor, single point]
59 | Cc1ccc(S(=O)(=O)Nc2ccc3nc(-c4cccn4C)[nH]c3c2)cc1 |  | inconclusive: 22.4 µM [inhibitor, single point]
60 | O=C(O)CCC(=O)Nc1nc2nccc(-c3ccccc3)n2n1 |  | inconclusive: 12.6 µM [inhibitor, partial curve]
61 | COc1ccc(C(=O)N/C(=C\c2ccc3c(c2)OCO3)C(=O)Nc2ccc(C(=O)O)cc2)cc1 |  | inconclusive: 50.1 µM [inhibitor, partial curve]
62 | COC(=O)c1cc(C(=O)c2cc(Br)ccc2O)coc1=N |  | inconclusive: 0.199 µM [inhibitor, full curve, poor fit]
63 | O=C1/C(=C\c2ccc(-c3ccccc3[N+](=O)[O-])o2)C(c2ccccc2)=NN1c1ccccc1 | inactive: -10.7% | 
64 | O=C1CCCc2c1sc1nc3n(c(=O)c21)CCCCC3 | inactive: 12.1% | 
65 | c1ccc(-c2cn3nc4c(nc3n2)CCCC4)cc1 | inactive: -11.4% | 
66 | Cc1cc2c(c(=O)o1)[C@@H](O)[C@H]1O[C@@H]1C2=O |  | inconclusive: 6.31 µM [inhibitor, single point]
67 | C[C@H]1O[C@@H](O[C@H]2CC[C@@]3(C)[C@H](CC[C@@H]4[C@@H]3C[C@@H](O)[C@]3(C)[C@@H](C5=CC(=O)OC5)CC[C@]43O)C2)C[C@H](O)[C@@H]1O[C@H]1C[C@H](O)[C@H](O[C@H]2C[C@H](O)[C@H](O[C@@H]3O[C@H](CO)[C@@H](O)[C@H](O)[C@H]3O)[C@@H](C)O2)[C@@H](C)O1 | inactive: -8.21% | 
68 | O=C1/C(=C/C=C/c2ccco2)SC(=S)N1c1ccc(O)cc1 |  | active: 7.94 µM
69 | COc1ccccc1-c1nc(N(C)C)c2ccccc2n1 |  | inconclusive: 39.8 µM [inhibitor, single point]

Filtered by structure: those above with a cyano group
Row | Compound | activity change, negative = inhibition | Potency
20 | CCc1nc(SCC(=O)O)c(C#N)c2c1CCCC2 | inactive: 0.0918% | 
27 | COc1ccccc1OCCCn1c(C)c(C#N)c2ccccc21 |  | inconclusive: 5.62 µM [inhibitor, full curve, poor fit]
58 | N#CCC(CNc1ncc(C(F)(F)F)cc1Cl)OC(=O)c1cccc(C(F)(F)F)c1 (centres undefined) |  | inconclusive: 22.4 µM [inhibitor, single point]
